These are yes or no findings as the source states them, for the method shown. Binding calls can cover weak binding; strength is not graded here. Sequences can lack the tags named with a protein. For some of these results: In cells and extracts the contact can be indirect.
Key:
[1] = target: casein kinase 1 (CK1) isoform CK1γ (human protein on the ProtoArray) (human); assay: ProtoArray human protein microarray probed with Flag-human LMBR1L-V5
[2] = target: FLAG-tagged ring finger 43 (RNF43); assay: co-IP (anti-FLAG M2 agarose) from co-transfected HEK293T cells, anti-HA immunoblot
FLAG-tagged DVL2 [3] = assay: as above
[4] = target: FLAG-tagged FZD6 (frizzled-6); assay: as above
[5] = target: FLAG-tagged ring finger 43 (RNF43); assay: co-IP (anti-FLAG M2 agarose) from co-transfected HEK293T cells, anti-HA immunoblot (FIG. 4B)
FLAG-tagged DVL2 [6] = assay: as above
[7] = target: FLAG-tagged FZD6 (frizzled-6); assay: as above

Measured: binding

B1: Flag-human LMBR1L-V5 (N-terminus FLAG-tagged and C-terminus V5-tagged recombinant human LMBR1L) (receptor, not shown: small tags and cut ends)
chain: MEAPDYEVLSVREQLFHERIRECIISTLLFATLYILCHIFLTRFKKPAEFTTVDDEDATVNKIALELCTFTLAIALGAVLLLPFSIISNEVLLSLPRNYYIQWLNGSLIHGLWNLVFLFSNLSLIFLMPFAYFFTESEGFAGSRKGVLGRVYETVVMLMLLTLLVLGMVWVASAIVDKNKANRESLYDFWEYYLPYLYSCISFLGVLLLLVCTPLGLARMFSVTGKLLVKPRLLEDLEEQLYCSAFEEAALTRRICNPTSCWLPLDMELLHRQVLALQTQRVLLEKRRKASAWQRNLGYPLAMLCLLVLTGLSVLIVAIHILELLIDEAAMPRGMQGTSLGQVSFSKLGSFGAVIQVVLIFYLMVSSVVGFYSSPLFRSLRPRWHDTAMTQIIGNCVCLLVLSSALPVFSRTLGLTRFDLLGDFGRFNWLGNFYIVFLYNAAFAGLTTLCLVKTFTAAVRAELIRAFGLDRLPLPVSGFPQASRKTQHQ
binds: [1]

B2: HA-tagged LMBR1L (receptor, not shown: small tags and cut ends)
chain: MEAPDYEVLSVREQLFHERIRECIISTLLFATLYILCHIFLTRFKKPAEFTTVDDEDATVNKIALELCTFTLAIALGAVLLLPFSIISNEVLLSLPRNYYIQWLNGSLIHGLWNLVFLFSNLSLIFLMPFAYFFTESEGFAGSRKGVLGRVYETVVMLMLLTLLVLGMVWVASAIVDKNKANRESLYDFWEYYLPYLYSCISFLGVLLLLVCTPLGLARMFSVTGKLLVKPRLLEDLEEQLYCSAFEEAALTRRICNPTSCWLPLDMELLHRQVLALQTQRVLLEKRRKASAWQRNLGYPLAMLCLLVLTGLSVLIVAIHILELLIDEAAMPRGMQGTSLGQVSFSKLGSFGAVIQVVLIFYLMVSSVVGFYSSPLFRSLRPRWHDTAMTQIIGNCVCLLVLSSALPVFSRTLGLTRFDLLGDFGRFNWLGNFYIVFLYNAAFAGLTTLCLVKTFTAAVRAELIRAFGLDRLPLPVSGFPQASRKTQHQ
binds: [2] | FLAG-tagged DVL2 [3] | [4] | [5] | FLAG-tagged DVL2 [6] | [7]

Source: patent US20210269519A1
